Like-named read-outs stand apart in the source and are kept apart here. Further values from the same series stand in other lists.
Type: physicochemical
Procedure: A 10 mL solution of M4N at a concentration of about 10 mg/mL in 40% BP-β-CD was made as follows. About 10 mL of the 40% HP-β-CD solution were added to a glass beaker containing a stir bar. The beaker was placed on a magnetic plate and the stir bar was set to stir at medium speed. About […] of M4N were slowly added to the 40% HP-β-CD in the center of the beaker with the aid of a spatula. The M4N/40% HP-β-CD mixture was stirred for 2 hr or until all M4N was uniformly suspended without any clumps being present. The M4N/40% HP-β-CD mixture was optionally heated at 80° C. for about 30 min. (or longer if a larger volume of solution was desired, for example, 1 hr at 80° C. for 100 mL of the M4N/HP-β-CD mixture), or longer as needed to ensure complete dissolution of M4N. […] The final M4N/40% HP-β-CD solution was stored at room temperature and was kept protected from light. This process may be scaled up or down to obtain the requisite volume or concentration of M4N. Formulations containing M4N in other cyclodextrin solutions may be similarly made, such as, for example, by substituting HP-β-CD in the process described above with other cyclodextrins. […]
A 10 mL solution of M4N at a concentration of about 10 mg/mL in 50% HP-β-CD/0.5% HPMC was made as follows. About 10 mL of the 50% HP-β-CD/0.5% HPMC solution were added to a glass beaker containing a stir bar. The beaker was placed on a magnetic plate and the stir bar was set to stir at medium speed. About 100 mg of M4N were slowly added to the 50% HP-β-CD/0.5% HPMC in the center of the beaker with the aid of a spatula. The M4N/50% HP-β-CD/0.5% HPMC mixture was stirred for 24 hr or until all M4N was uniformly suspended without any clumps being present. The M4N/50% HP-β-CD/0.5% HPMC mixture was heated at about 90° C. for about 30 min. (or longer if a larger volume of solution was desired, for example, 1 hr at 90° C. for 500 mL of the M4N/50% HP-β-CD/0.5% HPMC mixture), or longer as needed to ensure complete dissolution of M4N. […] The final M4N/50% HP-β-CD/0.5% HPMC solution was stored at room temperature and was kept protected from light.
A 10 mL solution of M4N at a concentration of about 20 mg/mL in 5% EC (w/v) (the “EC formulation”) was made as follows. About 10 mL of 5% EC formulation, made as described above, were added to a glass beaker containing a stir bar. The beaker was placed on a magnetic plate and the stir bar was set to stir at medium speed, and covered with a round Teflon® cover. About 200 mg of M4N were slowly added to the 5% EC formulation in the center of the beaker with the aid of a spatula to prevent M4N from sticking to the beaker wall. The M4N/EC mixture was stirred for 2 hr or until all M4N had dissolved or was uniformly suspended without any clumps being present. The M4N/EC mixture was heated at about 60° C. for about 30 min. (or longer if a larger volume of solution was desired, for example, 1 hr at 60° C. for 500 mL of the M4N/EC mixture), or longer as needed to ensure complete dissolution of M4N. […] The final M4N/EC solution was stored at room temperature and was kept protected from light.
A 10 mL solution of M4N at a concentration of about 50 mg/mL in sesame oil was made as follows. About 10 mL of sesame oil were added to a glass beaker containing a stir bar. The beaker was placed on a magnetic plate and the stir bar was set to stir at medium speed. About 500 mg of M4N were slowly added to the sesame oil in the center of the beaker with the aid of a spatula to prevent M4N from sticking to the beaker wall. The M4N/sesame oil mixture was stirred for about 2 hr or until all M4N had dissolved or was uniformly suspended without any clump being present. The M4N/sesame oil mixture was heated at about 60° C. for about 30 min. (or longer if a larger volume of solution was desired, for example, 1 hr at 60° C. for 500 mL of the M4N/sesame oil mixture), or longer as need to ensure complete dissolution of M4N. […]

SMILES: COc1ccc(C[C@@H](C)[C@@H](C)Cc2ccc(OC)c(OC)c2)cc1OC [Formulation M4N, meso-1,4-bis(3,4-dimethoxyphenyl)-2,3-dimethylbutane]
- Dissolution After Heating (M4N 1 mg/mL in Corn Oil, 60° C.): Y at 60 °C
- Dissolution After Rotation (M4N 1 mg/mL in Peppermint Oil): Y
- Dissolution After Rotation (M4N 2.4 mg/mL, Sesame Oil, Tween ® 20 and Glycerol, 10% Oil emulsion in 90% saline): Y
- Dissolution After Rotation (M4N 2.9 mg/mL, Sesame Oil and Tween ® 20, 10% Oil emulsion in 90% saline): Y
- Dissolution After Rotation (M4N 10 mg/mL in 1% CMC (High Viscosity)): N
- Dissolution After Heating (M4N 10 mg/mL in 1% CMC (High Viscosity), 90° C.): N at 90 °C
- Dissolution After Rotation (M4N 10 mg/mL in 1% CMC (Low Viscosity)): suspension
- Dissolution After Rotation (M4N 10 mg/mL in 2% MC (Low viscosity)): N
- Dissolution After Heating (M4N 10 mg/mL in 2% MC (Low viscosity), 90° C.): N at 90 °C
- Dissolution After Rotation (M4N 10 mg/mL in 4% CMC (Low Viscosity)): N
- Dissolution After Heating (M4N 10 mg/mL in 4% CMC (Low Viscosity), 90° C.): N at 90 °C
- Dissolution After Heating (M4N 10 mg/mL in 5% EC in EtOH, 40° C.): Y at 40 °C
- Dissolution After Heating (M4N 10 mg/mL in 50% HP-β-CD, 0.5% HPMC, 90° C.): Y at 90 °C
- Dissolution After Rotation (M4N 10 mg/mL in Corn Oil): N
- Dissolution After Heating (M4N 10 mg/mL in Corn Oil, 60° C.): Y at 60 °C
- Dissolution After Rotation (M4N 10 mg/mL in Mineral Oil): N
- Dissolution After Heating (M4N 10 mg/mL in Mineral Oil, 60° C.): Y at 60 °C
- Dissolution After Rotation (M4N 10 mg/mL in Peppermint Oil): Y
- Dissolution After Rotation (M4N 10 mg/mL in Sesame Oil): Y
- Dissolution After Rotation (M4N 10 mg/mL in Soybean Oil): N
- Dissolution After Heating (M4N 10 mg/mL in Soybean Oil, 60° C.): Y at 60 °C
- Dissolution After Rotation (M4N 20 mg/mL in 1% CMC (Low Viscosity)): suspension
- Dissolution After Heating (M4N 20 mg/mL in 5% EC in EtOH, 60° C.): Y at 60 °C
- Dissolution After Rotation (M4N 20 mg/mL in 50% Peppermint Oil, 50% Sesame Oil): Y
- Dissolution After Rotation (M4N 20 mg/mL in Corn Oil): N
- Dissolution After Heating (M4N 20 mg/mL in Corn Oil, 60° C.): Y at 60 °C
- Dissolution After Rotation (M4N 20 mg/mL in Peppermint Oil): Y
- Dissolution After Rotation (M4N 20 mg/mL in Sesame Oil): N
- Dissolution After Heating (M4N 20 mg/mL in Sesame Oil, 60° C.): Y at 60 °C
- Dissolution After Rotation (M4N 24.3 mg/mL in 75% Sesame Oil, 9% Tween ® 20, 16% Glycerol): N
- Dissolution After Heating (M4N 24.3 mg/mL in 75% Sesame Oil, 9% Tween ® 20, 16% Glycerol, 60° C.): Y at 60 °C
- Dissolution After Rotation (M4N 29 mg/mL in 89% Sesame Oil, 11% Tween ® 20): N
- Dissolution After Heating (M4N 29 mg/mL in 89% Sesame Oil, 11% Tween ® 20, 60° C.): Y at 60 °C
- Dissolution After Heating (M4N 30 mg/mL in 5% EC in EtOH, 60° C.): Y at 60 °C
- Dissolution After Rotation (M4N 30 mg/mL in Olive Oil): N
- Dissolution After Heating (M4N 30 mg/mL in Olive Oil, 60° C.): Y at 60 °C
- Dissolution After Rotation (M4N 30 mg/mL in Sesame Oil): N
- Dissolution After Heating (M4N 30 mg/mL in Sesame Oil, 60° C.): Y at 60 °C
- Dissolution After Rotation (M4N 30 mg/mL in Soybean Oil): N
- Dissolution After Heating (M4N 30 mg/mL in Soybean Oil, 60° C.): Y at 60 °C
- Dissolution After Rotation (M4N 40 mg/mL in 50% Peppermint Oil, 50% PEG 300): N
- Dissolution After Heating (M4N 40 mg/mL in 50% Peppermint Oil, 50% PEG 300, 35° C.): Y at 35 °C
- Dissolution After Rotation (M4N 40 mg/mL in 50% Peppermint Oil, 50% PEG 400): N
- Dissolution After Heating (M4N 40 mg/mL in 50% Peppermint Oil, 50% PEG 400, 40° C.): Y at 40 °C
- Dissolution After Rotation (M4N 40 mg/mL in 50% Peppermint Oil, 50% Sesame Oil): N
- Dissolution After Heating (M4N 40 mg/mL in 50% Peppermint Oil, 50% Sesame Oil, 40° C.): Y at 40 °C
- Dissolution After Rotation (M4N 40 mg/mL in 50% Peppermint Oil, 50% Tween ® 20): N
- Dissolution After Heating (M4N 40 mg/mL in 50% Peppermint Oil, 50% Tween ® 20, 40° C.): Y at 40 °C
- Dissolution After Rotation (M4N 40 mg/mL in 85% Sesame Oil, 15% Tween ® 20): N
- Dissolution After Heating (M4N 40 mg/mL in 85% Sesame Oil, 15% Tween ® 20, 45° C.): Y at 45 °C
- Dissolution After Rotation (M4N 40 mg/mL in Corn Oil): N
- Dissolution After Heating (M4N 40 mg/mL in Corn Oil, 60° C.): Y at 60 °C
- Dissolution After Rotation (M4N 40 mg/mL in Peppermint Oil): N
- Dissolution After Heating (M4N 40 mg/mL in Peppermint Oil, 40° C.): Y at 40 °C
- Dissolution After Heating (M4N 50 mg/mL in 2.3% HPMC, 90° C.): N at 90 °C
- Dissolution After Heating (M4N 50 mg/mL in 5% EC in EtOH, 90° C.): Y at 90 °C
- Dissolution After Heating (M4N 50 mg/mL in 50% HP-β-CD, 0.5% HPMC, 90° C.): N at 90 °C
- Dissolution After Rotation (M4N 50 mg/mL in Camillia Oil): N
- Dissolution After Heating (M4N 50 mg/mL in Camillia Oil, 60° C.): Y at 60 °C
- Dissolution After Rotation (M4N 50 mg/mL in Corn Oil): N
- Dissolution After Heating (M4N 50 mg/mL in Corn Oil, 60° C.): Y at 60 °C
- Dissolution After Rotation (M4N 50 mg/mL in Mineral Oil): N
- Dissolution After Heating (M4N 50 mg/mL in Mineral Oil, 60° C.): Y at 60 °C
- Dissolution After Rotation (M4N 50 mg/mL in Sesame Oil): N
- Dissolution After Heating (M4N 50 mg/mL in Sesame Oil, 60° C.): Y at 60 °C
- Dissolution After Rotation (M4N 50 mg/mL in Soybean Oil): N
- Dissolution After Heating (M4N 50 mg/mL in Soybean Oil, 60° C.): Y at 60 °C
- Dissolution After Rotation (M4N 52 mg/mL in 40% Peppermint Oil, 40% PEG 400, 20% Glycerol): N
- Dissolution After Heating (M4N 52 mg/mL in 40% Peppermint Oil, 40% PEG 400, 20% Glycerol, 40° C.): Y at 40 °C
- Dissolution After Rotation (M4N 59 mg/mL in 45% Peppermint Oil, 45% PEG 400, 10% Glycerol): N
- Dissolution After Heating (M4N 59 mg/mL in 45% Peppermint Oil, 45% PEG 400, 10% Glycerol, 40° C.): Y at 40 °C
- Dissolution After Rotation (M4N 60 mg/mL in 0.4% (v/v) Cinnamaldehyde, 5% (w/v) Beeswax, 94.5% (v/v) Olive Oil): N
- Dissolution After Heating (M4N 60 mg/mL in 0.4% (v/v) Cinnamaldehyde, 5% (w/v) Beeswax, 94.5% (v/v) Olive Oil, 50° C.): Y at 50 °C
- Dissolution After Rotation (M4N 60 mg/mL in 33% Peppermint Oil, 33% Tween ® 20, 33% PEG 400): N
- Dissolution After Heating (M4N 60 mg/mL in 33% Peppermint Oil, 33% Tween ® 20, 33% PEG 400, 40° C.): Y at 40 °C
- Dissolution After Rotation (M4N 60 mg/mL in 50% Peppermint Oil, 50% PEG 300): N
- Dissolution After Heating (M4N 60 mg/mL in 50% Peppermint Oil, 50% PEG 300, 35° C.): Y at 35 °C
- Dissolution After Rotation (M4N 60 mg/mL in 50% Peppermint Oil, 50% PEG 400): N
- Dissolution After Heating (M4N 60 mg/mL in 50% Peppermint Oil, 50% PEG 400, 40° C.): Y at 40 °C
- Dissolution After Rotation (M4N 60 mg/mL in 50% Peppermint Oil, 50% Sesame Oil): N
- Dissolution After Heating (M4N 60 mg/mL in 50% Peppermint Oil, 50% Sesame Oil, 40° C.): Y at 40 °C
- Dissolution After Rotation (M4N 60 mg/mL in 50% Peppermint Oil, 50% Tween ® 20): N
- Dissolution After Heating (M4N 60 mg/mL in 50% Peppermint Oil, 50% Tween ® 20, 40° C.): Y at 40 °C
- Dissolution After Rotation (M4N 60 mg/mL in 60% Peppermint Oil, 40% PEG 300): N
- Dissolution After Heating (M4N 60 mg/mL in 60% Peppermint Oil, 40% PEG 300, 40° C.): Y at 40 °C
- Dissolution After Rotation (M4N 60 mg/mL in 60% Peppermint Oil, 40% PEG 400): N
- Dissolution After Heating (M4N 60 mg/mL in 60% Peppermint Oil, 40% PEG 400, 40° C.): Y at 40 °C
- Dissolution After Rotation (M4N 60 mg/mL in 80% Olive Oil, 20% Soybean Oil): N
- Dissolution After Heating (M4N 60 mg/mL in 80% Olive Oil, 20% Soybean Oil, 70° C.): Y at 70 °C
- Dissolution After Rotation (M4N 60 mg/mL in 85% Sesame Oil, 15% Tween ® 20): N
- Dissolution After Heating (M4N 60 mg/mL in 85% Sesame Oil, 15% Tween ® 20, 55° C.): Y at 55 °C
